Source: the supplement of paper PMC11732987, “Enantioselective OTUD7B fragment discovery through chemoproteomics screening and high-throughput optimisation” (Communications Chemistry, 2025)
Some of the results follow. The data scatter; read single values as rough.

Amino acid sequences for entries named in this document (tags omitted). A change or cut given only in a name is not applied to a line headed by its entry.
UniProt Q9H6T3, whole entry, looked up: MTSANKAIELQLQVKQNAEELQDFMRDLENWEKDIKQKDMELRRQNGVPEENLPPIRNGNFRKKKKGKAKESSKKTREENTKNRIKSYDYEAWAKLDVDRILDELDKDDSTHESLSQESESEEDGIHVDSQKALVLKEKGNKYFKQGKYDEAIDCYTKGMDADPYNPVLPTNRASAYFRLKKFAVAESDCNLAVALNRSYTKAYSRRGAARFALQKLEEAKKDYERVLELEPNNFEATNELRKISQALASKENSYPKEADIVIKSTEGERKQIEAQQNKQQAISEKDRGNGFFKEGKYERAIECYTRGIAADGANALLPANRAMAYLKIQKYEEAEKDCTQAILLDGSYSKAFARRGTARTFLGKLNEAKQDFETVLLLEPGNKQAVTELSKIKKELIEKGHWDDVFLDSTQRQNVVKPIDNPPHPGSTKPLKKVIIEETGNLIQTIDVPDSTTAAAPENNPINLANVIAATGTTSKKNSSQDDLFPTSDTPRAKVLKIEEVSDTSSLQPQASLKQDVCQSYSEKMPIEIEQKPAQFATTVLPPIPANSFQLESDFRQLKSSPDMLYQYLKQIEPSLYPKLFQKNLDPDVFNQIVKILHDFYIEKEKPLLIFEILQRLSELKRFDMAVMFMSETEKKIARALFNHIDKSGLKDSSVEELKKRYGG
UniProt Q86UN3: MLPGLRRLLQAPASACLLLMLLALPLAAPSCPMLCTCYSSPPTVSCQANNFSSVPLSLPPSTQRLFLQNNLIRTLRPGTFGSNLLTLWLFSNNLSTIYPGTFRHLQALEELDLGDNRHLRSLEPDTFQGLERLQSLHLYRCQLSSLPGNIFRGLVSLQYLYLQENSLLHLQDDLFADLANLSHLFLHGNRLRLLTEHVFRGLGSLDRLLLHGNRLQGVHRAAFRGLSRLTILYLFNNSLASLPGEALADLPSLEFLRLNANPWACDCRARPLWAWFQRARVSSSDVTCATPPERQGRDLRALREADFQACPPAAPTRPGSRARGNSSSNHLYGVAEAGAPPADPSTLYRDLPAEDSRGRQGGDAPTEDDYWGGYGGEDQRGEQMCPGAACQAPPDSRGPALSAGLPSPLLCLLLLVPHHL
UniProt Q9NQG5: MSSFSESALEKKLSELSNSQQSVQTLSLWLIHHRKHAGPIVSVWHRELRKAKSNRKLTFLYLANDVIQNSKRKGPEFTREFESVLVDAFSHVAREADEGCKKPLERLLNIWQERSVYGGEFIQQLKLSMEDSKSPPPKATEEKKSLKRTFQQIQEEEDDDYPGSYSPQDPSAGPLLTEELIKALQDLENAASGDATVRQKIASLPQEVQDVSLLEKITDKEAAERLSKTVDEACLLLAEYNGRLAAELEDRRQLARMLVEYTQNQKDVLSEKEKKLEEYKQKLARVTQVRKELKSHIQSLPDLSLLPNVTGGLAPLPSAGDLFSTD
UniProt O75818: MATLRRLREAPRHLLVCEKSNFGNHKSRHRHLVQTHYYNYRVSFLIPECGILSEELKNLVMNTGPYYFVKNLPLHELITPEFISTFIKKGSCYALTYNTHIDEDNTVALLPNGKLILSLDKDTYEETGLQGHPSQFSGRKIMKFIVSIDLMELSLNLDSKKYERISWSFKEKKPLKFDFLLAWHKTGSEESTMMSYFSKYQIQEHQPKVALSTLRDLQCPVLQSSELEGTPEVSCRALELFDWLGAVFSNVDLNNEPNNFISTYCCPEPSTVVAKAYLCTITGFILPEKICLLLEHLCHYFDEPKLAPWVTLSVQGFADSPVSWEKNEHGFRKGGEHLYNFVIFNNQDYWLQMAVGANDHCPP
UniProt Q05823: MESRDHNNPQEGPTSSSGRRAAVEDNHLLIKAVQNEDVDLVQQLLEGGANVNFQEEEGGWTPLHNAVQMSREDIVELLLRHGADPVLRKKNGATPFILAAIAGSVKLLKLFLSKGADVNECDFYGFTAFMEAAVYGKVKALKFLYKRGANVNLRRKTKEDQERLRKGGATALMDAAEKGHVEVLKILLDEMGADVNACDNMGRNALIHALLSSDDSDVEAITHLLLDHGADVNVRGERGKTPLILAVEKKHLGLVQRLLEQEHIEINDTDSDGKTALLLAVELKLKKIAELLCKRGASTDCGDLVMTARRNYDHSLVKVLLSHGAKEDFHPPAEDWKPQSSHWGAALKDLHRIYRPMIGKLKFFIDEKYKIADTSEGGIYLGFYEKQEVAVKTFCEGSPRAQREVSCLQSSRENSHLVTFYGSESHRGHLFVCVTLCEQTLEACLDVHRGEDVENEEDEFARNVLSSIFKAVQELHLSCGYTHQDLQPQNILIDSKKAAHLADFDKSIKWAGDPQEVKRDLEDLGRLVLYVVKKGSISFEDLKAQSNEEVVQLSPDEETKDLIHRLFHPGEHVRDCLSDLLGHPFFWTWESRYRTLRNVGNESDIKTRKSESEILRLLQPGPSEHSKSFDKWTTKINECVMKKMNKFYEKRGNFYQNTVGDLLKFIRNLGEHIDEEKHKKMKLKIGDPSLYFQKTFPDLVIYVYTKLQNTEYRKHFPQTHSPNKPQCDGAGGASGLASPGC
UniProt Q8NCN4: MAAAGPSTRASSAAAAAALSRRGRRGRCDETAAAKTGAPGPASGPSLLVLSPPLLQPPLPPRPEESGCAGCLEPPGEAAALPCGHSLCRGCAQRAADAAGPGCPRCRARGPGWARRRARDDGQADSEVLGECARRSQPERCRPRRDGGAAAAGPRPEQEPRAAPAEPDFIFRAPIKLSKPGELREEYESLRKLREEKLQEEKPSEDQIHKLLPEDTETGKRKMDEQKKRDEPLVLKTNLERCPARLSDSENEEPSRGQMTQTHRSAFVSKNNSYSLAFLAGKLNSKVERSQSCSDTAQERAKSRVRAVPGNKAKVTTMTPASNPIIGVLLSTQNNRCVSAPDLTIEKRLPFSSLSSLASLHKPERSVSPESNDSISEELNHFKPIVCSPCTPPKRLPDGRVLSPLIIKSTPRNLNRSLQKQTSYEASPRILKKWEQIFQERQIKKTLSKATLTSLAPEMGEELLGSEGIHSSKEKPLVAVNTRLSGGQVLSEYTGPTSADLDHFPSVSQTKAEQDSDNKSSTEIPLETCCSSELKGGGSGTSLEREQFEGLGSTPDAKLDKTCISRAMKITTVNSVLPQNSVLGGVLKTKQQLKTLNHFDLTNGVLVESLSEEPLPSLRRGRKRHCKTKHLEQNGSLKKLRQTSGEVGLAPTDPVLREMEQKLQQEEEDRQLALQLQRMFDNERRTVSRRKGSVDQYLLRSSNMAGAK
UniProt Q8N5U6: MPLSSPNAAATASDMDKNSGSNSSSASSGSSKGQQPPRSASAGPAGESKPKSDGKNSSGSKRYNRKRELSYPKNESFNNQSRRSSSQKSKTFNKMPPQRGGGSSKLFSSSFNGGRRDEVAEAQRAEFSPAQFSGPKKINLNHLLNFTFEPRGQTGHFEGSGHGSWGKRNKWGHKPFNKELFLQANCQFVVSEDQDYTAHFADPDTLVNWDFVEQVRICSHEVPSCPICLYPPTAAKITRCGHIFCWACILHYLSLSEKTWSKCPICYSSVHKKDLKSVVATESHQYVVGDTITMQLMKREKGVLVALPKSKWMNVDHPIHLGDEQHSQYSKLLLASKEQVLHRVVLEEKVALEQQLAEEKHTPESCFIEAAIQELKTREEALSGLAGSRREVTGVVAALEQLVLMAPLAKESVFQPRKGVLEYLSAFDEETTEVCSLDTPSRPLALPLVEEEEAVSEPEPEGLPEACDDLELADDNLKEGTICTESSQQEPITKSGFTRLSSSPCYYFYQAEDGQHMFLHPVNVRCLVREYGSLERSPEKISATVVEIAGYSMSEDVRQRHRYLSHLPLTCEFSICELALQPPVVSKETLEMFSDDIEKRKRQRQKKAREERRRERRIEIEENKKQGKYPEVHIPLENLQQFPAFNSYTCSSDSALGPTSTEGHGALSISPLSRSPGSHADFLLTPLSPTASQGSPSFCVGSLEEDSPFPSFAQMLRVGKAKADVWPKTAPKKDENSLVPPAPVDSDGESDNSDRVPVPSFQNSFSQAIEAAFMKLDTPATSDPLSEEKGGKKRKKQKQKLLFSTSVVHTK
UniProt Q96T51: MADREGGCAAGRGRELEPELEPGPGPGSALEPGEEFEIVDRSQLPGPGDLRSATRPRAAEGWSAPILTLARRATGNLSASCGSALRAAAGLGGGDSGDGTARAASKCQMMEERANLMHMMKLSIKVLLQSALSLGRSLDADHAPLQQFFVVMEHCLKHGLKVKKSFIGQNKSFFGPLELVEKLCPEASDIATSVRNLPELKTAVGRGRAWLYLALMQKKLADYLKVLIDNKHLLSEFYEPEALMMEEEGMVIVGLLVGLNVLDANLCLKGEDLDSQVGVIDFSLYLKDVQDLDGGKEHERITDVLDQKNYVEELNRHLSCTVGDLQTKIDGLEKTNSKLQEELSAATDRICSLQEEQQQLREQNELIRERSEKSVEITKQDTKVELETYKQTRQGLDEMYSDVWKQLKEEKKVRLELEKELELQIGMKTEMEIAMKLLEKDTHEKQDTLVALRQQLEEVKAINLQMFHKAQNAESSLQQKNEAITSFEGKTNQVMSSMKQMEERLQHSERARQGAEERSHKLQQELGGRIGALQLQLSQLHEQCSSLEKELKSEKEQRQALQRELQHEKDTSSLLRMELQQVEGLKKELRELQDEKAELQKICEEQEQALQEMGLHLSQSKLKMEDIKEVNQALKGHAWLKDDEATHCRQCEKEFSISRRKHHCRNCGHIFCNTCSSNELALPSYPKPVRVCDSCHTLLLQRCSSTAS
UniProt Q9BV68: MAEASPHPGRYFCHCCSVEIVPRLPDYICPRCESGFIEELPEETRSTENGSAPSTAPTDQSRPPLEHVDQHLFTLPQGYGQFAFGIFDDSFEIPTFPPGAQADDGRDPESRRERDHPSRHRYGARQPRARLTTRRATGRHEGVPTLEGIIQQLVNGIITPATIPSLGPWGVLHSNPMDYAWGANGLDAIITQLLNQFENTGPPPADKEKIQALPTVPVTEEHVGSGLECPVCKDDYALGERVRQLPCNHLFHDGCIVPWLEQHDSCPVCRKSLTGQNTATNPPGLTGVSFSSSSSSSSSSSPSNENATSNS
UniProt O76064: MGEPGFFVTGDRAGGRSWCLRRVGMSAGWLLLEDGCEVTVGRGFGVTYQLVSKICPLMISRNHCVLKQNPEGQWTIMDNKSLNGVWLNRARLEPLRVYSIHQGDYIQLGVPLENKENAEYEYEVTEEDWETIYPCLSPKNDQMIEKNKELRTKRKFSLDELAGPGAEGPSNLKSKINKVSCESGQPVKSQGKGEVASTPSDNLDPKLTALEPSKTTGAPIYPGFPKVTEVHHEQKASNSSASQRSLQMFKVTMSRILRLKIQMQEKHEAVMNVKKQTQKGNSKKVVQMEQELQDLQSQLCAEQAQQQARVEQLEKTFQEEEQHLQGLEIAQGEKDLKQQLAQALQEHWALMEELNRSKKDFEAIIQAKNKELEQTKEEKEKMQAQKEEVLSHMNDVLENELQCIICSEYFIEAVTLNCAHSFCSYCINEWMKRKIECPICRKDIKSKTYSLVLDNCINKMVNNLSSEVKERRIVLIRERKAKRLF
UniProt Q6PCB5: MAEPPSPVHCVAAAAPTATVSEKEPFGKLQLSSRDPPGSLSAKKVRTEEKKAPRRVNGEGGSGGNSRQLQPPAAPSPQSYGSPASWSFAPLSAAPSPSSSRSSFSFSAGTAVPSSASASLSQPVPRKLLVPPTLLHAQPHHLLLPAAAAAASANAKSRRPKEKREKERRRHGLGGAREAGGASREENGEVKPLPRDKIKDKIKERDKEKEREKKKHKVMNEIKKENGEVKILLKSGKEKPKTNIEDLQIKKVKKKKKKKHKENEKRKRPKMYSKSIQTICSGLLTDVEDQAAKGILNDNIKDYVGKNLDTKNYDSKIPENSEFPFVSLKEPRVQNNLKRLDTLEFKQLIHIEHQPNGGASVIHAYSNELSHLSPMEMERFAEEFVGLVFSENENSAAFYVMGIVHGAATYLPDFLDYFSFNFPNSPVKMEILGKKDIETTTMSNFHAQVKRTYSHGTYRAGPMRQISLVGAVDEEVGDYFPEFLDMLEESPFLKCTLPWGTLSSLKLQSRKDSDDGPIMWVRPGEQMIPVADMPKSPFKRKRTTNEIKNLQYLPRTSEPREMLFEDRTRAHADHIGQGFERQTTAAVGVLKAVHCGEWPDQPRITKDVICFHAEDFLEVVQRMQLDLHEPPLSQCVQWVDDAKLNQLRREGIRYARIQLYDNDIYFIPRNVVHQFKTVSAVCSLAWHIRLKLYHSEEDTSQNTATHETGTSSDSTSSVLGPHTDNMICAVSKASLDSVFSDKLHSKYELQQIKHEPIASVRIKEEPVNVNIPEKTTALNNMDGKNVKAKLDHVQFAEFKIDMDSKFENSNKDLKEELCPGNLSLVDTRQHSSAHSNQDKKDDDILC

What follows are targets tested with ClCC(=O)N[C@@H]1CCCc2ccccc12 (assay: log2 mean competition ratio of IA-DTB cysteine labelling (DMSO/compound) (log2 ratio); higher = stronger cysteine engagement by compound). Settings: 50 µM; treatment time: 4 h; cell line lysate: HEK293T.
Protocol: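 IA-DTB competitive cysteine chemoproteomics in HEK293T RIPA lysate. Lysates were treated with compound 29 or 30 at 50 or 200 µM for 4 h, then IA-DTB (500 µM, 1 h), trypsin-digested, NeutrAvidin-enriched and analysed by diaPASEF. Competition ratio = intensity DMSO / intensity compound (n=4 treated, n=64 DMSO); binding: mean log2 CR ≥ 1 and p ≤ 0.05 plus QC filters. Target is the cysteine site.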

Target | log2 mean competition ratio
RPL12 C162 (UniProt P30050) | -0.14
RPAP3 C304 (UniProt Q9H6T3) | 0.0989
RNF213 C3084 | 0.613
RPAP3 C519 (UniProt Q9H6T3) | -0.0978
RNF213 C2943 | -0.324
RPL36A;RPL36AL C88;(C88) | 0.344
RPL14 C42 (UniProt P50914) | 0.149
RTN4RL2 C310 (UniProt Q86UN3) | -0.403

Same assay, conditions: 200 µM; treatment time: 4 h; cell line lysate: HEK293T

Target | log2 mean competition ratio
ROR1 C575 | -0.424
RPRD1B C100 (UniProt Q9NQG5) | 0.145
SACS C395 (UniProt Q9NZJ4) | 0.248
RPP40 C17 (UniProt O75818) | -0.109
RNASEL C395 (UniProt Q05823) | 0.101
RPSA C163 | -0.592
RPA1 C323 (UniProt P27694) | 0.0811
RNF169 C28 (UniProt Q8NCN4) | 0.227
RNF213 C2918 | -0.107
RNF31 C473 (UniProt Q96EP0) | -0.245
RNF10 C483 (UniProt Q8N5U6) | -0.373
RUFY1 C107 (UniProt Q96T51) | 0.338
RPL4 C208 (UniProt P36578) | 0.124
RNF126 C32 (UniProt Q9BV68) | -0.157
RPS6KA5 C475 (UniProt O75582) | -0.284
RNF213 C4397 | -0.252
RNF8 C181 (UniProt O76064) | 0.0109
SAC3D1 C84 (UniProt A6NKF1) | -0.216
RSBN1L C595 (UniProt Q6PCB5) | -0.126
RNF213 C1748 | 0.189
RNFT1 C90 (UniProt Q5M7Z0) | -0.133

2 entries from above, with tabs:
Target	log2 mean competition ratio
RPA1 C323 (UniProt P27694)	0.0811
RNF169 C28 (UniProt Q8NCN4)	0.227
